According to the supplement of paper PMC5949888:
Most values lie at the floor of the assay. Slopes are relative: functional sequences can read slightly below zero.

These substances were tested on Saccharomyces cerevisiae PS128 hsf1 delta, HSF1(1-493) fusion (assay: growth estimate (transactivation domain function in HSF1 fusion, heat-shock survival) (a.u. (slope of normalised read count over time)); higher = stronger growth at 37°C, i.e. more transactivation activity). Conditions: library: random library.
Method: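 Random 60-nt DNA library encoding peptides of up to 20 aa, fused to the C-terminus of yeast HSF1 residues 1-493 (C-terminal TAD deleted) and expressed from the native HSF1 promoter on a CEN plasmid in hsf1-deleted S. cerevisiae PS128. Cells were selected at 37°C on -trp 5-FOA plates for 0, 2, 4, 6 and 8 days and amplicons were sequenced. Growth estimate is the slope of a robust linear fit of total-sum-normalised read counts (normalised to the first time point) over time, using at least 2 replicates. Sequences are classed functional (TAD activity) above a threshold of -0.13, set from stop-codon control sequences.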
With ANSVFRGR the growth estimate was under -0.25. In the case of ANVHARVPGPISGHMSVSRL, the growth estimate is reported as under -0.25. Substance ANVLFLLRGI has a growth estimate of under -0.25. Work on APAPQRLLAGRQTSSASSE yielded a growth estimate of under -0.25. In the case of APARKPDDTKVLERCLGKSV, the growth estimate is reported as under -0.25. With APCHLIFCRRTILP the growth estimate was under -0.25. APCYRSGCYRARVVLAENDP gave a growth estimate of under -0.25. For APDQAYVSGSCRTGIGEDVA, the growth estimate was under -0.25. Substance APEAADSN has a growth estimate of under -0.25. In the case of APEFTVC, the growth estimate is reported as under -0.25. Substance APERMWVSRSCRRSAFGLRL has a growth estimate of -0.248. APFFLWASYPIMVEVTFKYS showed a growth estimate of under -0.25. In the case of APGLHLQDVVT, the growth estimate is reported as under -0.25. APGPSQQALI showed a growth estimate of under -0.25. With APHH the growth estimate was under -0.25. For APHHRNKG, the growth estimate was under -0.25. Substance APKAEECQVILSPIRGLKVW has a growth estimate of under -0.25. For APKLLSRYVLSMSYSRRWPR, the growth estimate was under -0.25. For APLFTRWAVSSRQNADRVYP, the growth estimate was under -0.25. For APMACGHLCPVTIRF, the growth estimate was under -0.25. For APPVSILYRMGSCIG, the growth estimate was under -0.25. Substance APPWILFVPDWATSRNI has a growth estimate of under -0.25. For APQFFIHLQWWPVYLWFGNL, the growth estimate was under -0.25. Substance APRCSLKASCIFCPSEASDQ has a growth estimate of under -0.25. APRKVSRRPSKDYPVDGGSI showed a growth estimate of under -0.25. For APRLGR, the growth estimate was under -0.25. Substance APSDSLRGS has a growth estimate of under -0.25. Substance APSPLLGGYVQYGSGA has a growth estimate of under -0.25. Work on APSTLIAAWSRNSRFL yielded a growth estimate of under -0.25. For APSTTVDSARALVQDARDAL, the growth estimate was under -0.25. APTGLLDRRAIR was tested, and the growth estimate was under -0.25. Work on APTKVPFRIDQVLNIPRYGA yielded a growth estimate of under -0.25. With APVGQRTCAFCLY the growth estimate was under -0.25. Work on APVNGTGTRIFDTC yielded a growth estimate of under -0.25. Substance APVRDGHSRYIAR has a growth estimate of under -0.25. AQAIVCNESCLPSRVSLLP was tested, and the growth estimate was under -0.25. Substance AQCKGNKWCH has a growth estimate of under -0.25. AQGVSITRQRTHGSTRMLNE was tested, and the growth estimate was under -0.25. AQLGGQVRV was tested, and the growth estimate was under -0.25. In the case of AQLGRLHWVYCLDVGLALRR, the growth estimate is reported as under -0.25. In the case of AQLWGS, the growth estimate is reported as under -0.25. AQMMLS showed a growth estimate of under -0.25. For AQNACEAVTYKMRVFYAQGE, the growth estimate was under -0.25. For AQRKIDVSGCSDPRIAPYSG, the growth estimate was under -0.25. AQSDASVVMVFLTFLVCFRG showed a growth estimate of under -0.25. For AQSNRVMISVP, the growth estimate was under -0.25. For AQSTVA, the growth estimate was 0.0823. AQVRMTTEGNAHLYVRPTKT showed a growth estimate of under -0.25. With ARAEHLVTAL the growth estimate was under -0.25. In the case of ARAGEYVKK, the growth estimate is reported as under -0.25. Work on ARAI yielded a growth estimate of under -0.25. In the case of ARAPDYPDQVDRT, the growth estimate is reported as under -0.25. Substance ARASRKEGLNSMVL has a growth estimate of under -0.25. ARCHRSCSPSATGEVL showed a growth estimate of under -0.25. With ARCLAVSRDNHAWGRSQPNK the growth estimate was under -0.25. For ARCVCYGTVPWSWFFLELTV, the growth estimate was under -0.25. Substance ARCWGAVASGGMSDQLRVVC has a growth estimate of under -0.25. With ARDAGPTSTMGH the growth estimate was under -0.25. In the case of ARDKTRLSGLSRTT, the growth estimate is reported as under -0.25. For ARDVSALSVESRVFRAVMRK, the growth estimate was under -0.25. ARDWEEFSRHRKFGSPSFLH was tested, and the growth estimate was under -0.25. Work on AREAWLRWEWNGRGSVAYSQ yielded a growth estimate of under -0.25. Work on ARERPLFWLRRIVVRQTASM yielded a growth estimate of under -0.25. Substance ARESMFRKVRFRSRQSWDWP has a growth estimate of under -0.25. With ARGPTDCGGTVRYRQLTVPG the growth estimate was under -0.25. For ARGQ, the growth estimate was under -0.25. Substance ARGQHGVQYGLYSLLTPPPA has a growth estimate of under -0.25. With ARGRKFLGIGIVRR the growth estimate was under -0.25. Substance ARGSPSVR has a growth estimate of under -0.25. Work on ARGSRSTPLPRACLWILCVG yielded a growth estimate of under -0.25. Work on ARHERG yielded a growth estimate of -0.243. ARHFTAGSNCVTRIGGVTDY gave a growth estimate of under -0.25. Work on ARHRCLGEGAFLAIGSTGVL yielded a growth estimate of under -0.25. With ARIRD the growth estimate was under -0.25. For ARKEG, the growth estimate was under -0.25. In the case of ARKKVGKGAT, the growth estimate is reported as under -0.25. ARL gave a growth estimate of under -0.25. ARLEIVSCLISAQVTHWAIT was tested, and the growth estimate was under -0.25. For ARLKVYINVAGEKEGAGLCW, the growth estimate was under -0.25. With ARLL the growth estimate was under -0.25.
